No constants are given. Whether binding was seen depends on the method and setting. For some of these results: Binding seen in cells or lysates may run through a third protein. Some results given as binding are weak or reduced against the parent protein; the word gives no strength. For some of these results: Where a sequence is shown, tags or fusion partners need not be part of it.

Amino acid sequences for entries named in this document (tags omitted).
UniProt Q9NP72: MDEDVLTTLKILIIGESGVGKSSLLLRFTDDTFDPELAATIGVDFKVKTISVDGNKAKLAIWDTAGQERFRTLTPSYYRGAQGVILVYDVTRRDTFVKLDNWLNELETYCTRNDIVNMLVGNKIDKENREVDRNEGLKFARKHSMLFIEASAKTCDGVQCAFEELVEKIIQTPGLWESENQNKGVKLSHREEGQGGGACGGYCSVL
UniProt P11142: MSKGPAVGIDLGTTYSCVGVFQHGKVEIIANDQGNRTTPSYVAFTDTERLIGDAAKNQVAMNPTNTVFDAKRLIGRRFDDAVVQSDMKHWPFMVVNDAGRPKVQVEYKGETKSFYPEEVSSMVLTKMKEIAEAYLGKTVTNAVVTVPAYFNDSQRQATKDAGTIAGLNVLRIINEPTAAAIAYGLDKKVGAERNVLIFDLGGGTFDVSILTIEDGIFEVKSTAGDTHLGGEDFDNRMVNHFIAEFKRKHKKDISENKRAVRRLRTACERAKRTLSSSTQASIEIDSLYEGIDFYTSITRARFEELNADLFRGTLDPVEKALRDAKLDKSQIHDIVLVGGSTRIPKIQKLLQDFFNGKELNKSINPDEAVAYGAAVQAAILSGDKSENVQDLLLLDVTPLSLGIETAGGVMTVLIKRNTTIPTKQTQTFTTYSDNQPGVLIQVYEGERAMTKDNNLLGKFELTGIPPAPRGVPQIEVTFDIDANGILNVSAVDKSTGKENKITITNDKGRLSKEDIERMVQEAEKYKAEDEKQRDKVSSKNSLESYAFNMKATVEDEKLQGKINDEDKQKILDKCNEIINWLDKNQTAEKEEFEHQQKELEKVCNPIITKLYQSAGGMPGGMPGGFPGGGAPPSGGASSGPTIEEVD

Experimental findings from article PMC11014436 are described below.

For one experiment, the target named is GST-RAB18 (UniProt Q9NP72). Description: pull-down; in vitro affinity isolation: GST-tag purification resin, 1 nM His-tagged protein with 1 nM GST fusion protein in 500 μL PBS + 1% Triton X-100, 45 min at 4°C; five washes; immunoblot; both purified.
The target in another experiment is RAB18-FLAG (UniProt Q9NP72). Kind of experiment: co-IP; HEK293T cells co-transfected for 24 h; lysis buffer PBS, 1% NP-40, 5 mM EDTA, 5 mM EGTA; Sepharose with IgG, anti-FLAG or anti-HA mAb for 4 h; immunoblot. Background: A western blot detects proteins with antibodies after separation by electrophoresis.
The next experiment deals with GST-HSPA8 (UniProt P11142). Kind of experiment: pull-down; in vitro affinity isolation: GST-tag purification resin, 1 nM His-tagged protein with 1 nM GST fusion protein in 500 μL PBS + 1% Triton X-100, 45 min at 4°C; five washes; immunoblot; both purified.
The target of a further experiment is RAB18-HA (UniProt Q9NP72). Description: co-IP; HEK293T cells co-transfected for 24 h; lysis buffer PBS, 1% NP-40, 5 mM EDTA, 5 mM EGTA; Sepharose with IgG, anti-FLAG or anti-HA mAb for 4 h; immunoblot.

Regarding “His-SUMO-HSPA8 (from UniProt P11142 1-646)”, in the experiment with GST-RAB18, the binding entry is given as “binds”. In the case of HSPA8-HA (from UniProt P11142 1-646), the binding result with RAB18-FLAG is recorded as “binds”. For “His-SUMO-RAB18 (from UniProt Q9NP72 1-206)”, the binding result with GST-HSPA8 is recorded as “binds”.

B1: PLIN2 (aa 1–251)-FLAG (domain or fragment, UniProt Q99541 1-251)
chain: MASVAVDPQPSVVTRVVNLPLVSSTYDLMSSAYLSTKDQYPYLKSVCEMAENGVKTITSVAMTSALPIIQKLEPQIAVANTYACKGLDRIEERLPILNQPSTQIVANAKGAVTGAKDAVTTTVTGAKDSVASTITGVMDKTKGAVTGSVEKTKSVVSGSINTVLGSRMMQLVSSGVENALTKSELLVEQYLPLTEEELEKEAKKVEGFDLVQKPSYYVRLGSLSTKLHSRAYQQALSRVKEAKQKSQQTIS
With B1, the binding result in the experiment with RAB18-HA was “no binding”.
